Reference: patent EP4813986A1, “COMPOUND FOR REDUCING SERUM CONCENTRATION OF RBP4, AND USE” (Heronova Pharmaceuticals, LLC, priority 2023, dated 2025)
For at least one compound, name, drawing or mass did not settle the structure.

Molecular target: T1, RBP4 (Mus musculus, UniProt Q00724)
T1 construct: from tissue; host or cells: plasma of ICR male mice
Experiment: Plasma RBP4 content detection test (ELISA) after single oral dose
Format: in vivo, ICR male mice
Conditions: 5 mg/kg oral, maximum reduction within 5 to 24 hours vs 0-hour value
Procedure: Test Method: ICR male mice aged 7 to 8 weeks were adaptively fed for 3 to 7 days and randomly divided into groups (4 mice per group), and fasted for 12 hours before the test. Orbital venous blood samples were collected and plasma was separated before administration on the test day (0-hour value as the initial content). Then, test compounds at a dose of 1 mg/kg or 5 mg/kg were orally administered (vehicle: 5% DMSO + 10% cyclodextrin), and vehicle (5% DMSO + 10% cyclodextrin) was orally administered as a control group. Orbital venous blood samples were collected and plasma was separated at 5, 8, 10, 12, and 24 hours after compound administration. The RBP4 content in plasma samples was detected using Mouse RBP4 (Retinol Binding Protein 4, Plasma) ELISA Kit (immunoway, KE1574), the reduction rate was calculated, and the maximum reduction rate within 5 to 24 hours was selected. Reduction rate of RBP4 content in mouse plasma at different sampling time points = (Initial RBP4 content - RBP4 content at sampling point) / Initial RBP4 content. Table 2 Plasma RBP4 Reduction Levels of Different Compounds

SMILES: O=C(c1n[nH]c2c1COCC2)N1CC=C(c2ccc(F)c(F)c2C(F)(F)F)CC1 [Compound 17]
- Maximum Plasma RBP4 Reduction Rate (5 mg/kg dose): 93%
